According to US20240209099A1:
Results are given in words; binding and its absence hold for the method and conditions named. Some entries that bind do so weakly or less than the wild type. Tags and fused reporters may be left off the sequences shown.

Sequences of proteins named here, by UniProt entry; tags and fusion partners are left off. A change or cut given only in a name is not applied to a line headed by its entry.
UniProt P35918: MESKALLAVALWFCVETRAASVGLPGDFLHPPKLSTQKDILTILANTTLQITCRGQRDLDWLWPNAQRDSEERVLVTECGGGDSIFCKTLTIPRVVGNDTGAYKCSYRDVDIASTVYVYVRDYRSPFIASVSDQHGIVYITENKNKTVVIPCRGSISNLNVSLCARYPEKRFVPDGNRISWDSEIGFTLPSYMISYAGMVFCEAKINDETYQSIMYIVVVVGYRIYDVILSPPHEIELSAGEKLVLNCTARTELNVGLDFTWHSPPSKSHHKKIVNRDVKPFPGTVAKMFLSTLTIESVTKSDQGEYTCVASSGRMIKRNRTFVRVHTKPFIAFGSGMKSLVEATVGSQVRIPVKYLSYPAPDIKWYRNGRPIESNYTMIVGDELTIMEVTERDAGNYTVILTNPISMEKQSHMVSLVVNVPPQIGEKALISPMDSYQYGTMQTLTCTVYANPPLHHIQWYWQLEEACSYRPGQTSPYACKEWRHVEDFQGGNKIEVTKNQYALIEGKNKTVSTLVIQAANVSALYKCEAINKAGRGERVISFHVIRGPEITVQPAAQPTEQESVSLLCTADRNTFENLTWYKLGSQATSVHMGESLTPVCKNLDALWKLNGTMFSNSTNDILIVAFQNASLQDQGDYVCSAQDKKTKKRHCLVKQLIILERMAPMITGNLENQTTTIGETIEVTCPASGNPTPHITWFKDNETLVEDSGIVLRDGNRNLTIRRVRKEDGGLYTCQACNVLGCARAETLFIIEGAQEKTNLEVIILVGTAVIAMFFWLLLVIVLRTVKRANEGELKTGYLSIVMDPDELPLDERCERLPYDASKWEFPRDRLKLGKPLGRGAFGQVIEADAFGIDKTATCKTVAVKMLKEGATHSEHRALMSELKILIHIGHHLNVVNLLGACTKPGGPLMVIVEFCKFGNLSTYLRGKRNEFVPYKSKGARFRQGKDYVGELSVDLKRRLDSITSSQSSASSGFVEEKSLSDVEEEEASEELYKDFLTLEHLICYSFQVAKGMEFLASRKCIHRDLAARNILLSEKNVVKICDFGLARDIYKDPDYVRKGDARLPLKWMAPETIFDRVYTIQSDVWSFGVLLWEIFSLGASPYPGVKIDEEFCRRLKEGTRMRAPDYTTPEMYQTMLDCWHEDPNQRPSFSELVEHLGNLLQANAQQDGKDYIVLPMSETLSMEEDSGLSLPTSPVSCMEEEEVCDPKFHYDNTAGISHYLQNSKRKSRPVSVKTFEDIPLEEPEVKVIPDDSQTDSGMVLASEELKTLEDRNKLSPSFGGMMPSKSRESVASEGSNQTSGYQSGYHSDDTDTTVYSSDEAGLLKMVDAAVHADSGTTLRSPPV

Target: mouse VEGFR2 (mouse) (UniProt P35918)
Experiment: ELISA, mouse VEGFR2 coated

B1: chimeric-DC101 (anti-mouse VEGFR2 antibody DC101 with human IgG1 Fc) (antibody, V domains shown)
VH: EVQLVETGGGLVQPGNSLKLSCATSGFIFSTTWMNWIRQTPGKRLEWLAQIEDKSNNYFISYSESVKGRFTISRDDSKSSVYLQMNNLKEEDTAIYYCSWKYRSNYYFDYWGQGVMVTVSS
VL: DIVLTQSPALAVSLEQRATISCKTSQNVDYYGISYLHWYQQKPGQQPKLLIYEGSNLASGIPARFSGSGSGTDFTLTIDPVEADDIVTYYCQQSKDYPYTFGAGTKLELKR
With B1 the binding was “binds”.
